# Data from the supplement of paper PMC10727501.
# The other results are listed elsewhere or left out. Single values are uncertain here, since repeats match poorly.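 Researchers measured free-swimming zebrafish larvae's O-bend response probability to dark flashes (naive: first five; training: remaining flashes of four 60-flash blocks; test: later 60-flash block) and OMR turning toward alternating leftward/rightward LED motion. Six treated larvae were compared to sixty 0.1% DMSO controls, with |SSMD|≥2 marking a hit.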
# What was measured:
# Conditions in all cases: 10 µM; pre-incubation: 30-90 min
# [1] = tested on: Danio rerio larvae (5 dpf, TLF); test: OMR-Perf (SSMD vs DMSO vehicle); higher = higher than vehicle (e.g. higher dark-flash O-bend response probability, or better optomotor performance)
# [2] = tested on: Danio rerio larvae (5 dpf, TLF); test: Prob-Test (SSMD vs DMSO vehicle); higher = higher than vehicle (e.g. higher dark-flash O-bend response probability, or better optomotor performance)
# [3] = tested on: Danio rerio larvae (5 dpf, TLF); test: Prob-Naive (SSMD vs DMSO vehicle); higher = higher than vehicle (e.g. higher dark-flash O-bend response probability, or better optomotor performance)
# [4] = tested on: Danio rerio larvae (5 dpf, TLF); test: Prob-Train (SSMD vs DMSO vehicle); higher = higher than vehicle (e.g. higher dark-flash O-bend response probability, or better optomotor performance)
SMILES,OMR-Perf [1],Prob-Test [2],Prob-Naive [3],Prob-Train [4]
C=CC(=O)Nc1cccc(Nc2nc(Nc3ccc(N4CCN(C(C)=O)CC4)cc3OC)ncc2C(F)(F)F)c1,0.473,-0.292,-0.0443,-0.399
COc1ccc(C[C@@H]2c3cc(OC)c(OC)cc3CC[N@+]2(C)CCC(=O)OCCCCCOC(=O)CC[N@@+]2(C)CCc3cc(OC)c(OC)cc3[C@H]2Cc2ccc(OC)c(OC)c2)cc1OC.O=S(=O)([O-])c1ccccc1.O=S(=O)([O-])c1ccccc1 [Cisatracurium Besylate],0.285,-0.00434,-0.217,0.645
CC1(C)O[C@H]2CC(=O)OC[C@]23[C@H]2CC[C@@]4(C)[C@H](c5ccoc5)OC(=O)[C@@H]5O[C@]54[C@@]2(C)C(=O)C[C@@H]13 [Limonin],-0.326,-0.124,0.146,-0.125
COc1ncnc(NS(=O)(=O)c2ccc(N)cc2)c1OC [Sulfadoxine (Sulphadoxine)],0.166,0.138,0.131,0.456
Cc1cc(Cn2cnc3c2C[C@@H](C(=O)O)N(C(=O)C(c2ccccc2)c2ccccc2)C3)ccc1N(C)C,0.323,0.316,0.147,0.459
C=C1C[C@@]2(O)O[C@@]3(C[C@H]2C(C)C)[C@H](C)CC[C@@H]13 [Curcumol],0.295,-0.816,-0.673,-1.05
CCCCCCCCCCCCc1ccc(S(=O)(=O)Nc2nncs2)cc1,0.155,-0.158,0.173,-0.445
CCN(c1cc(-c2ccc(CN3CCOCC3)cc2)cc(C(=O)NCc2c(C)cc(C)[nH]c2=O)c1C)C1CCOCC1,-0.11,-0.0479,0.146,-0.119
COc1cc2ncnc(Sc3nnc(C)s3)c2cc1OC,-0.273,1.2,-0.254,1.6
CCCc1nc2c(C)cc(-c3nc4ccccc4n3C)cc2n1Cc1ccc(-c2ccccc2C(=O)O)cc1 [Telmisartan],-0.816,1.81,-0.418,-1.22
Cc1cc2c(cc1CC(=O)c1sccc1S(=O)(=O)[N-]c1onc(C)c1Cl)OCO2.[Na+] [Sitaxentan sodium],-0.511,-0.11,0.0516,-0.132
O=C(NC1CCNCC1)c1n[nH]cc1NC(=O)c1c(Cl)cccc1Cl,0.407,0.79,-0.043,-0.298
CCCCOc1ccc(CC(=O)NO)cc1 [Bufexamac],-0.557,0.0158,-0.743,-0.866
CN(C)CCC(c1ccccc1)c1ccccn1.O=C(O)/C=C\C(=O)O (stereo not drawn) [Pheniramine Maleate],-0.343,-0.0124,-0.235,0.133
COc1ccc(-c2nc3cc(C4=NNC(=O)CC4C)ccc3[nH]2)cc1 (stereo not drawn) [Pimobendan],0.163,0.126,-0.487,0.0573
Cc1ccccc1C(=O)Nc1ccc(C(=O)N2CCCC(N(C)C)c3ccccc32)cc1 (stereo not drawn) [Mozavaptan],-0.33,-0.041,-0.528,-0.279
CC(C)OC(=O)C(C(=O)OC(C)C)=C1SC=CS1 [Malotilate],-0.046,-1.34,-2.12,-1.65
COc1cc2nc(N3CCCN(C)CC3)nc(NC3CCN(Cc4ccccc4)CC3)c2cc1OC.Cl.Cl.Cl,0.387,0.153,0.446,0.26
Cn1c(=O)c2c(ncn2CC2OCCO2)n(C)c1=O [Doxofylline],-0.74,-0.092,-0.204,0.312
Cc1cccc(Nc2ccncc2S(=O)(=O)NC(=O)NC(C)C)c1 [Torsemide],-0.101,-0.0798,0.471,-0.0794
O/C(=NCc1ccccc1)/CCNNC(=O)c1ccncc1 [Nialamide],0.446,0.64,0.153,0.959
CCN(CC)CCCC(C)Nc1c2ccc(Cl)cc2nc2ccc(OC)cc12.Cl.Cl (stereo not drawn) [Quinacrine 2HCl],-0.536,-0.0138,-0.233,-1.27
CS(=O)(=O)O.Cc1ccc(N(CC2=NCCN2)c2cccc(O)c2)cc1 [Phentolamine Mesylate],-0.0822,0.129,-0.0812,-0.394
NC(CO)(CO)CO.O=C(c1ccccc1)c1ccc2n1CCC2C(=O)O (stereo not drawn) [Ketorolac],0.0685,0.172,0.312,0.432
CNC(=O)c1ccccc1Sc1ccc2c(/C=C/c3ccccn3)n[nH]c2c1 [Axitinib],-0.16,-0.325,-0.34,-0.446
CC[C@@H](C)Nc1cc(C(=O)NC2CC3CCC(C2)N3c2ccc(C(=O)C3CC3)cn2)c(C)cc1C(N)=O (stereo partly drawn),-0.292,0.26,-0.261,0.667

SMILES,OMR-Perf [1],Prob-Test [2],Prob-Naive [3],Prob-Train [4]
O=C(O)/C=C/C(=O)O.OCCOCCN1CCN(C2=Nc3ccccc3Sc3ccccc32)CC1.OCCOCCN1CCN(C2=Nc3ccccc3Sc3ccccc32)CC1 [Quetiapine Fumarate],-1.03,-1.09,0.497,-0.983
O=C(NCc1cccc(O)c1)Nc1nc(-c2ccncc2)cs1,0.133,-0.559,-0.202,-0.292
O=c1c(-c2ccc(O)cc2)coc2cc(O)ccc12 [Daidzein],0.261,-0.0977,-0.0545,-0.224
CN(c1ncccc1CNc1nc(Nc2ccc3c(c2)CC(=O)N3)ncc1C(F)(F)F)S(C)(=O)=O,-0.206,-0.494,0.456,-0.0193
Cc1ccc(NCCCc2ccccc2)c(N)c1,-0.135,0.0841,-0.452,-0.109
CC1(C)S[C@H]2[C@@H](NC(=O)[C@@H](NC(=O)N3CCN(S(C)(=O)=O)C3=O)c3ccccc3)C(=O)N2[C@H]1C(=O)[O-].[Na+] [Mezlocillin Sodium],-0.191,0.199,0.287,0.135
S=C=Nc1cccc(NC(=S)NCCCCNC(=S)Nc2cccc(N=C=S)c2)c1,-0.545,0.288,0.6,0.378
COc1ccc2cc(-c3[nH]c(-c4ccc(S(C)=O)cc4)nc3-c3ccncc3)ccc2c1 (stereo not drawn) [Tie2 kinase inhibitor],-0.113,-0.228,-0.385,-0.194
O=C1c2ccccc2-c2n[nH]c3cccc1c23,0.658,-1.49,-5.13,-2.35
Br.CN1CCC[C@@H]1Cc1c[nH]c2ccc(CCS(=O)(=O)c3ccccc3)cc12 [Eletriptan HBr],-0.466,-0.109,0.389,0.372
Nc1ncnc2c1ncn2[C@@H]1O[C@H](CO)[C@@H](O)[C@@H]1O [Vidarabine],0.627,0.678,0.493,0.717
CNC(=O)CN1CCC(Oc2cc3c(Nc4cccc(Cl)c4F)ncnc3cc2OC)CC1 [AZD8931 (Sapitinib)],0.071,0.126,-0.476,0.479
Cl.N=C(N)NC(=O)c1nc(Cl)c(N)nc1N [Amiloride HCl],-0.333,-0.421,-0.317,-0.686
C[C@H]1CCN(C(=O)CC#N)C[C@@H]1N(C)c1ncnc2[nH]ccc12.O=C(O)CC(O)(CC(=O)O)C(=O)O,-0.104,0.0607,0.145,-0.0484
CNS(=O)(=O)CCc1ccc2[nH]cc(C3CCN(C)CC3)c2c1.Cl [Naratriptan],-0.132,0.253,0.126,0.11
Cc1cc2c(s1)Nc1ccccc1N=C2N1CCN(C)CC1 [Olanzapine],-0.711,-0.187,-0.226,-0.0421
CCOc1ccc2ccccc2c1C(=O)N[C@@H]1C(=O)N2[C@@H]1SC(C)(C)[C@H]2C(=O)[O][Na].O [Nafcillin Sodium],-0.102,-0.206,-0.171,0.465
CCN(CCO)CCCOc1ccc2c(Nc3cc(CC(=O)Nc4cccc(F)c4)n[nH]3)ncnc2c1 [Barasertib (AZD1152-HQPA)],-0.0218,0.171,-0.0643,-0.345
CC(C)n1nc(-c2ccc3oc(N)nc3c2)c2c(N)ncnc21,-0.0926,0.467,0.538,0.874
Oc1c(Cl)cc(Cl)c2cccnc12 [Chloroxine],-0.886,-1.44,-1.59,-2.22
Cl.NC1CCN(c2c(F)cc3c(=O)c(C(=O)O)cn(C4CC4)c3c2Cl)C1 (stereo not drawn) [Clinafoxacin HCl],-0.0682,0.111,-0.0763,0.428
CCC[C@@H]1C[C@@H](C(=O)N[C@@H](C(C)Cl)[C@H]2O[C@@H](SC)[C@H](O)[C@@H](O)[C@H]2O)N(C)C1.Cl (stereo partly drawn) [Clindamycin HCl],-0.179,0.058,0.208,-0.103
O=C(NCCCNc1nc(Nc2cccc(NC(=O)N3CCCC3)c2)ncc1I)c1cccs1,-0.274,-0.186,0.0951,-0.245
Cl.Fc1ccc([C@@H]2CCNC[C@H]2COc2ccc3c(c2)OCO3)cc1 [Paroxetine HCl],-0.0116,-0.277,0.389,-1.28
O=C(O)[C@@H]1O[C@H](Oc2cc3oc(-c4ccccc4)cc(=O)c3c(O)c2O)[C@H](O)[C@@H](O)[C@@H]1O [Baicalin],0.154,-0.353,0.285,0.245
Cc1cc(C)nc(NS(=O)(=O)c2ccc(N)cc2)n1 [Sulfamethazine],-0.48,0.109,0,0.946

# 2 entries from above, set out differently.
SMILES | OMR-Perf [1] | Prob-Test [2] | Prob-Naive [3] | Prob-Train [4]
CCN(CCO)CCCOc1ccc2c(Nc3cc(CC(=O)Nc4cccc(F)c4)n[nH]3)ncnc2c1 [Barasertib (AZD1152-HQPA)] | -0.0218 | 0.171 | -0.0643 | -0.345
CCC[C@@H]1C[C@@H](C(=O)N[C@@H](C(C)Cl)[C@H]2O[C@@H](SC)[C@H](O)[C@@H](O)[C@H]2O)N(C)C1.Cl (stereo partly drawn) [Clindamycin HCl] | -0.179 | 0.058 | 0.208 | -0.103
